Patent US8383853B2, “Method for preparing 2,6-diethyl-4-methylphenylacetic acid” (Bayer Cropscience AG, priority 2004, dated 2013)
Some of these results come from one statement about several compounds together.

Experiments:
Assay type in all cases: in vivo
[1] = tested on: green peach aphid (Myzus persicae); experiment: Myzus test (spray treatment); settings: 500 g/ha of a.i., after 5 d
[2] = tested on: larvae of the mustard beetle (Phaedon cochleariae); experiment: Phaedon test (PHAECO spray treatment); settings: 500 g/ha of a.i., after 7 d
Avena sativa [3] = experiment: Herbicidal post-emergence action; settings: application rate 320 g/ha, about 3 weeks
Echinochloa crus-galli = experiment: Herbicidal post-emergence action; settings: application rate 320 g/ha, about 3 weeks
Description: (§1) Seeds of monocotyledonous and dicotyledonous weed and crop plants are placed into sandy loam in wood fiber pots, covered with soil and cultivated in a greenhouse under good growth conditions. Two-three weeks after sowing, the test plants are treated at the one-leaf stage. The test compounds, formulated as wettable powders (WP), are then, in various dosages with a water application rate of 600 l/ha (converted), with 0.2% of wetting agent added, sprayed onto the green parts of the plants. After the test plants have been kept in the greenhouse under optimum growth conditions for about 3 weeks, the effect of the preparations is rated visually in comparison to untreated controls (herbicidal effect in percent (%): 100% effect=the plants have died, 0% effect=like control plants).

Lolium multiflorum [4] = experiment: Herbicidal post-emergence action; settings: application rate 320 g/ha, about 3 weeks
Description: as §1

Setaria viridis [5] = experiment: Herbicidal post-emergence action; settings: application rate 320 g/ha, about 3 weeks
Description: as §1

Lolium multiflorum [6] = experiment: Herbicidal pre-emergence action; settings: application rate 320 g/ha, 3 weeks
Excerpt: (§2) Seeds of monocotyledonous and dicotyledonous weed and crop plants are placed in sandy loam in wood fiber pots and covered with soil. The test compounds, formulated in the form of wettable powders (WP), are then, as an aqueous suspension with a water application rate of 600 l/ha (converted), with 0.2% of wetting agent added, applied to the surface of the covering soil in various dosages.
(§3) After the treatment, the pots are placed in a greenhouse and kept under good growth conditions for the test plants. The visual assessment of the emergence damage on the test plants is carried out after a trial period of 3 weeks by comparison with untreated controls (herbicidal effect in percent (%): 100% effect=the plants have died, 0% effect=like control plants).

Setaria viridis [7] = experiment: Herbicidal pre-emergence action; settings: application rate 320 g/ha, 3 weeks
Excerpt: as §2, §3

Avena sativa [8] = experiment: Herbicidal pre-emergence action; settings: application rate 320 g/ha, 3 weeks
[9] = tested on: greenhouse red spider mite (Tetranychus urticae); experiment: Tetranychus test (OP-resistance/spray treatment); settings: 100 g/ha of a.i., after 5 d

| SMILES | activity in % (aphids killed) [1] [%] | activity in % (beetle larvae killed) [2] [%] | activity (herbicidal effect in percent) (Avena sativa [3]) [%] | activity (herbicidal effect in percent) (Echinochloa crus-galli) [%] | activity (herbicidal effect in percent) (Lolium multiflorum [4]) [%] | activity (herbicidal effect in percent) (Setaria viridis [5]) [%] | activity (herbicidal effect in percent) (Lolium multiflorum [6]) [%] | activity (herbicidal effect in percent) (Setaria viridis [7]) [%] | activity (herbicidal effect in percent) (Avena sativa [8]) [%] | activity in % (spider mites killed) [9] [%] |
| --- | --- | --- | --- | --- | --- | --- | --- | --- | --- | --- |
| CCOC1CCC2(CC1)NC(=O)C(c1c(CC)cc(C)cc1CC)=C2O (single isomer, unassigned) [I-a-2] | ≥ 90 | ≥ 80 | ≥ 80 | ≥ 80 | ≥ 80 | ≥ 80 | – | – | – | – |
| CCc1cc(C)cc(CC)c1C1=C(O)C2(CCC(C)CC2)NC1=O (single isomer, unassigned) [I-a-10] | ≥ 90 | – | ≥ 80 | ≥ 80 | ≥ 80 | ≥ 80 | – | – | – | – |
| CCc1cc(C)cc(CC)c1C1=C(O)C2(CCC(C(F)(F)F)CC2)NC1=O (single isomer, unassigned) [I-a-11] | ≥ 90 | ≥ 80 | – | – | – | – | – | – | – | – |
| CCc1cc(C)cc(CC)c1C1=C(OC(=O)C(C)C)C2(CCC(OC)CC2)NC1=O (single isomer, unassigned) [I-b-3] | – | – | ≥ 80 | ≥ 80 | ≥ 80 | ≥ 80 | – | – | – | – |
| CCc1cc(C)cc(CC)c1C1=C(O)C2CC(OC)CN2C1=O (stereo not shown) [I-a-8] | – | – | ≥ 80 | ≥ 80 | ≥ 80 | ≥ 80 | ≥ 80 | ≥ 80 | ≥ 80 | – |
| CCc1cc(C)cc(CC)c1C1=C(OC(=O)COC)C2(CCC(OC)CC2)NC1=O (stereo not shown) [I-b-1] | ≥ 90 | ≥ 80 | – | – | – | – | – | – | – | ≥ 70 |
| CCc1cc(C)cc(CC)c1C1=C(OC(=O)C(C)C)C(C)(CC)NC1=O (stereo not shown) [I-b-5] | – | – | ≥ 80 | ≥ 80 | ≥ 80 | ≥ 80 | ≥ 80 | ≥ 80 | ≥ 80 | – |
| CCc1cc(C)cc(CC)c1C1=C(OC(=O)C(C)C)C(C)(C)NC1=O [I-b-6] | – | – | ≥ 80 | ≥ 80 | ≥ 80 | ≥ 80 | – | – | – | – |
| CCc1cc(C)cc(CC)c1C1=C(OC(=O)COC)C(C)(C)NC1=O [I-b-8] | – | – | ≥ 80 | ≥ 80 | ≥ 80 | ≥ 80 | – | – | – | – |
| CCc1cc(C)cc(CC)c1C1=C(OC(=O)C(C)C)C(CC)N(C)C1=O (stereo not shown) [I-b-11] | – | – | ≥ 80 | ≥ 80 | ≥ 80 | ≥ 80 | – | – | – | – |
| CCc1cc(C)cc(CC)c1C1=C(OC(=O)C(C)C)C2CCCN2C1=O (stereo not shown) [I-b-13] | – | – | ≥ 80 | ≥ 80 | ≥ 80 | ≥ 80 | ≥ 80 | ≥ 80 | ≥ 80 | – |
| CCOC(=O)OC1=C(c2c(CC)cc(C)cc2CC)C(=O)N(CC)C1C (stereo not shown) [I-c-5] | – | – | ≥ 80 | ≥ 80 | ≥ 80 | ≥ 80 | – | – | – | – |
| CCOC(=O)OC1=C(c2c(CC)cc(C)cc2CC)C(=O)N2CCCC12 (stereo not shown) [I-c-6] | – | – | ≥ 80 | ≥ 80 | ≥ 80 | ≥ 80 | – | – | – | – |
